A short description of this assay: qHTS Assay for Lipid Storage Modulators in Drosophila S3 Cells.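 On cell number change: cells counted by Cell Tracker Red CMTPX staining in the red channel.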 To be noted: BODIPY lipid droplet fluorescence, 18-24 h; for cell number change: measured here: cell count max response, cells fed with added oleic acid. The procedure, abridged: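 Laser-scanning cytometry quantifies lipid droplet accumulation (500–530 nm total intensity; droplet/cell object ratio) in oleic acid-fed (400 uM added) Drosophila S3 cells treated with a concentration series. 20 uM Triacsin C defined 100% inhibition.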
(In general: qHTS replaces the single test concentration by a dilution series.)

Setting [1] is: measured here: lipid fluorescence (Fed channel) AC50, cells fed with added oleic acid.
Where [2] appears, read: measured here: cell number channel AC50, cells fed with added oleic acid.

The list shows a part of the results. The main result of the screen is listed elsewhere. These columns were measured beside it and carry no call. Compounds called inactive in the main read-out are mostly missing here. Words in brackets tell the shape of the fitted curve; partial curves, single points and poor fits give uncertain potencies.

On to `COc1ccc(C(=O)C2CCCN(S(=O)(=O)N(C)C)C2)c(C)c1` (stereo not drawn), for which the cell number change stood at 0.338%. For the same compound, the AC50 under setting [1] is 0.92 µM [rising, full curve].
For the compound `CCOC(=O)C1=C(C)N=C2c3ccccc3C(=O)C2C1c1ccc(Br)cc1` (stereo not drawn), the cell number change was -38.9%. Besides, under setting [2], the AC50 is 29.1 µM [falling, single point].
Turning to `COc1ccc(CN(C(=O)Cn2nnc(-c3ccc(C)o3)n2)C(C(=O)NCC2CCCO2)c2ccco2)cc1` (stereo not drawn), the cell number change is -46.6%. For the same compound, the concentration at half-maximal activity (AC50) under setting [2] was 14.6 µM [falling, partial curve]. Under setting [1], the AC50 is 9.2 µM [falling, partial curve].
Regarding `COc1ccc(CNC(=O)COC(=O)c2ccc(Br)cc2)cc1`, the cell number change was -14.2%. Moreover, the AC50 under setting [1] was 2.31 µM [falling, partial curve, poor fit].
As to `CC(=O)Nc1ccc(SCC(=O)N(CCC#N)c2cc(C)cc(C)c2)cc1`, the cell number change was 96.7%. Moreover, under setting [2], the concentration at half-maximal activity (AC50) is 20.6 µM [rising, single point].
In the case of `O=C(Nc1ccccc1F)c1cccc(C(=O)Nc2ccccc2F)c1`, the cell number change was 15%. Further, under setting [1], the AC50 was 16.4 µM [rising, single point].
Consider `COc1ccc(Cl)cc1NC(=O)C(C)Sc1nnc(C2CC2)n1C1CC1` (stereo not drawn), for which the cell number change is 5.77%.
As for `CSc1nsc(SCc2ccc(Cl)cc2)n1`, the cell number change was determined as 13.9%. The AC50 under setting [1] is 23.1 µM [rising, partial curve].
Turning to `Cc1ccc2cccc(O)c2[n+]1[O-]`, the cell number change amounted to 11%.
Take `CC(C)Cc1nnc(NC(=O)CCC(=O)N2CC(C)CC(C)C2)s1` (stereo not drawn): the cell number change was found to be 16.5%. Under setting [1], the AC50 is 6.51 µM [rising, single point].
On to `CCn1c(SCC(=O)N2CC(C)OC(C)C2)nc2c([nH]c3ccccc32)c1=O` (stereo not drawn), for which the cell number change was -22.5%. Further, the AC50 under setting [1] was 2.06 µM [falling, partial curve].
Regarding `CC(=O)Cc1nsc(NC(=O)c2ccc(-c3cccc(C(F)(F)F)c3)o2)n1`, the cell number change came out at 6.36%. Also, the AC50 under setting [1] was 0.92 µM [rising, full curve, poor fit].
As to `Cc1c(-c2ccc(Cl)cc2)oc(=O)c2c(N)n(-c3ccccc3)nc12`, the cell number change was -31.1%. The AC50 under setting [2] was 8.2 µM [falling, partial curve]. In addition, the AC50 under setting [1] is 4.11 µM [falling, partial curve].
Consider `CCCCn1c(CNC(=O)C23CC4CC(CC(C4)C2)C3)nnc1SC(C)CC` (stereo not drawn), for which the cell number change was -25.9%. Besides, the AC50 under setting [1] is 11.6 µM [falling, partial curve, poor fit].
As to `COc1cc(C(=O)N2CCC(NC(=O)C(Cc3ccc(C(C)C)cc3)NC(C)=O)CC2)cc(OC)c1OC` (stereo not drawn), the cell number change turned out to be 4.03%.
Consider `COc1cccc(NC(=O)C(C)SCc2ccccc2)c1` (stereo not drawn), for which the cell number change is 161%. Also, under setting [2], the concentration at half-maximal activity (AC50) is 23.1 µM [rising, partial curve].
With `CC(C)(O)C(=O)N/N=C\c1ccc(OC/C=C/c2ccccc2)cc1`, the cell number change stood at 47%. The AC50 under setting [2] is 18.4 µM [rising, partial curve]. The concentration at half-maximal activity (AC50) under setting [1] was 29.1 µM [rising, single point].
Turning to `CCOC(=O)NC(c1ccc(C(C)C)cc1)C(Cl)(Cl)Cl` (stereo not drawn), the cell number change is -32.1%. For the same compound, the AC50 under setting [2] was 0.00461 µM [falling, full curve, poor fit]. Further, the concentration at half-maximal activity (AC50) under setting [1] was 13 µM [falling, partial curve].
For `Cc1ccc(CNC(=O)Cn2cnc(S(=O)(=O)N3CCC(C)CC3)c2)o1`, the cell number change is 8.36%.
In the case of `CC(C)(C)CC(C)(C)NC(=O)c1ccc2snnc2c1`, the cell number change was -32.4%. Moreover, under setting [2], the AC50 is 29.1 µM [falling, single point]. Further, the concentration at half-maximal activity (AC50) under setting [1] was 29.1 µM [falling, single point].
As for `O=C(Nc1nc(-c2ccc(Cl)cc2)cs1)C1CCCO1` (stereo not drawn), the cell number change worked out at 19.1%.
On to `C[C@H](NC(=O)c1nc[nH]c1C(=O)N(C)Cc1ccccc1)c1ccccc1`, for which the cell number change was -0.859%. Moreover, the AC50 under setting [2] was 1.84 µM [falling, partial curve].
Take `Cc1ccc(S(=O)(=O)NCc2c(-c3ccccc3)noc2C)cc1`: the cell number change is -15.1%. Further, the AC50 under setting [1] was 0.00731 µM [falling, full curve, poor fit].
With `Cc1cccc2c(=O)c(-c3ccc(Cl)cc3)c(NC(=O)c3ccco3)oc12`, the cell number change is -4.58%. The AC50 under setting [1] was 29.1 µM [rising, single point].
Regarding `COc1ccccc1C(=O)COC(=O)CCCN=C1NS(=O)(=O)c2ccccc21`, the AC50 under setting [1] is 23.1 µM [rising, single point].
Regarding `Cn1cc(S(=O)(=O)NCC2CCCO2)c(=O)n(C)c1=O` (stereo not drawn), the cell number change is -26.4%. For the same compound, the AC50 under setting [1] is 0.82 µM [falling, full curve].
With `O=C(O)/C=C\C(=O)Nc1cccc(NC(=O)c2ccccc2)c1`, the cell number change was 9.15%. Further, the AC50 under setting [1] was 0.00651 µM [rising, full curve, poor fit].
`COc1ccc(N(CC(=O)NCc2ccccc2)S(=O)(=O)c2c(C)nn(C)c2C)cc1`: the cell number change worked out at 39.3%. Besides, the AC50 under setting [2] was 3.26 µM [rising, partial curve]. For the same compound, the half-maximal activity concentration (AC50) under setting [1] was 5.8 µM [rising, partial curve].
Regarding `COC(=O)c1cc(S(=O)(=O)NCCCc2ccco2)c[nH]1`, the cell number change was -12.2%. Also, under setting [1], the AC50 was 29.1 µM [falling, single point].
On to `CCNc1nc(NC(C)C)nc(N(C#N)CCOc2ccccc2)n1`, for which the cell number change is -36.6%. Further, under setting [1], the concentration at half-maximal activity (AC50) was 29.1 µM [falling, single point].
Turning to `C(=C\c1ccccc1)/CSc1nnc(-c2cccnc2)n1Cc1ccco1`, the cell number change was -17.3%. Also, the half-maximal activity concentration (AC50) under setting [1] is 2.31 µM [rising, full curve].
`COC(=O)COc1ccccc1C(=O)Nc1ccc(OC)cc1`: the cell number change came to 16.3%. Moreover, under setting [1], the half-maximal activity concentration (AC50) is 6.51 µM [rising, single point].
Consider `COc1cccc(CC(=O)NC2CCCN(Cc3ccc(Cl)cc3)C2)c1` (stereo not drawn), for which the cell number change was 1.84%.
For the compound `Cc1ccc2nc(NC(=O)CNS(=O)(=O)c3ccc(Br)s3)sc2c1`, the cell number change is -39.3%. In addition, the AC50 under setting [2] was 32.6 µM [falling, single point]. The AC50 under setting [1] was 0.13 µM [falling, full curve, poor fit].
Turning to `COc1ccc(/C=C/C(=O)N(C)CC(=O)Nc2cccc(F)c2)cc1S(=O)(=O)N1CCCCC1`, the cell number change is -9.61%.
The same measure, in the same setting: the value for `CCOc1cc(NC(=S)Nc2ccccc2)c(OCC)cc1NC(=O)c1ccc(OC)cc1` was -8.62%; that for `COCCn1nnnc1CN(CCc1ccccc1)Cc1cc2ccc(C)cc2[nH]c1=O` was -12%.
Turning to `O=C1N/C(=C/c2ccc(N3CCOCC3)o2)C(=O)N1c1cccc(Cl)c1`, the cell number change was -3.18%. Further, the AC50 under setting [1] was 5.62 µM [falling, single point].
As for `CCN(CC)c1ccc(/C=N/Nc2nc(C)cc(C)n2)c(O)c1`, the AC50 under setting [1] was 9.2 µM [falling, partial curve, poor fit].
Take `COc1ccc(CC(=O)Nc2cc(Cl)ccc2C(=O)O)cc1`: the cell number change was found to be 21.7%. Moreover, under setting [1], the AC50 was 1.84 µM [falling, partial curve].
Regarding `COc1ccc(CCCc2nnc(SCC(=O)Nc3nccs3)n2C)cc1C`, the cell number change is -176%. Also, the AC50 under setting [2] is 29.1 µM [falling, single point]. Further, the AC50 under setting [1] was 29.1 µM [falling, single point].
On to `COc1ccc(NC(=O)CN(C)C(=O)c2cn(-c3ccccc3)nc2-c2ccc(OC)cc2)cc1`, for which the cell number change is -15%. Moreover, the AC50 under setting [1] is 16.4 µM [rising, partial curve, poor fit].
Regarding `COc1cc(OC)cc(C(=O)NNC(=O)CNC(=O)c2cccs2)c1`, the cell number change was 37.2%. In addition, under setting [2], the AC50 was 29.1 µM [rising, single point]. The AC50 under setting [1] was 25.9 µM [rising, partial curve, poor fit].
Turning to `O=C(COC(=O)/C=C/c1cccc(C(F)(F)F)c1)Nc1cccc2ccccc12`, the cell number change is -3.29%. Also, the concentration at half-maximal activity (AC50) under setting [1] was 16.4 µM [falling, single point].
With `CCCC(=O)Nc1c2c(nn1-c1ccc(C)cc1C)CSC2`, the cell number change is -71.1%. Besides, the AC50 under setting [2] was 29.1 µM [falling, partial curve, poor fit]. In addition, under setting [1], the concentration at half-maximal activity (AC50) was 0.58 µM [rising, partial curve, poor fit].
In the case of `O=S(=O)(c1ccc(S(=O)(=O)N2CCCC2)cc1)N1CCCCCC1`, the cell number change was -8.65%. Further, the AC50 under setting [1] was 29.1 µM [rising, single point].
Regarding `Cc1cc(C)cc(-n2ncc3c2CCCC3NC(=O)CCN2CCCC2=O)c1` (stereo not drawn), the cell number change is -1.16%. Moreover, the AC50 under setting [2] was 4.11 µM [falling, single point].
With `O=[N+]([O-])c1ccccc1-c1ccc(C(=S)N2CCCCC2)o1`, the cell number change was found to be 5.54%. Under setting [1], the half-maximal activity concentration (AC50) is 1.64 µM [rising, partial curve, poor fit].
Turning to `CCCn1c(-c2ccc(F)cc2)n[nH]c1=S`, the cell number change is -20.6%.
As for `COc1ccc(-n2[nH]c(C)cc2=O)cc1`, the cell number change was determined as 11.1%. Moreover, the AC50 under setting [1] is 0.13 µM [falling, full curve, poor fit].
On to `CC1CN(C(=O)c2ccccc2NS(=O)(=O)c2cccc([N+](=O)[O-])c2)CC(C)O1` (stereo not drawn), for which the cell number change is 13.2%. Also, the AC50 under setting [2] is 6.51 µM [rising, single point]. In addition, the half-maximal activity concentration (AC50) under setting [1] was 0.461 µM [falling, full curve].
In the case of `Cc1ccc(CC2C(=O)N(CC(=O)O)C(=O)C2C)cc1` (stereo not drawn), the cell number change was -8.63%. Also, the AC50 under setting [1] is 29.1 µM [rising, single point].
On to `CC(=O)Nc1ccc(N(C(=O)CNC(=O)c2ccco2)C(C(=O)NC2CCCC2)c2ccco2)cc1` (stereo not drawn), for which the cell number change worked out at 5%. In addition, the half-maximal activity concentration (AC50) under setting [1] was 1.03 µM [falling, single point].
For `NC(=O)c1ccsc1NC(=O)CSc1ccccc1F`, the cell number change amounted to 26.4%. Under setting [1], the concentration at half-maximal activity (AC50) was 3.66 µM [rising, partial curve].
With `COc1ccc(N2CCN(C(CNC(=O)C(C)(C)C)c3ccco3)CC2)cc1` (stereo not drawn), the concentration at half-maximal activity (AC50) under setting [2] was 0.651 µM [falling, single point].
In the case of `COc1ccc(C(=O)NNC(=O)C2(C)CC2(Br)Br)cc1` (stereo not drawn), the cell number change worked out at 11.8%.
In the case of `CC1Cc2ccccc2N1C(=O)c1ccc2nccnc2c1` (stereo not drawn), the cell number change was -2.89%. Further, under setting [1], the AC50 is 29.1 µM [rising, partial curve, poor fit].
For the compound `Cc1ccc(C)n1-c1sccc1C(=O)O`, the cell number change is -23.6%. Moreover, under setting [1], the AC50 is 18.4 µM [falling, single point].
Turning to `COc1ccc(NS(=O)(=O)c2cccc(NC(=O)CCC(=O)c3cccs3)c2)cc1`, the cell number change amounted to 14.8%.
Take `CC1(C)CC2CC(C)(CN2C(=O)c2cc(-c3ccccc3)on2)C1` (stereo not drawn): the cell number change is -6.94%. For the same compound, under setting [1], the concentration at half-maximal activity (AC50) was 6.51 µM [falling, single point].
With `Cc1ccc(S(=O)(=O)[N-]c2nc3ccccc3nc2-[n+]2cc(C)cc(C)c2)cc1`, the cell number change was found to be 6.83%. Further, the AC50 under setting [1] was 3.66 µM [rising, partial curve, poor fit].

By AC50 is commonly meant the midpoint of the concentration-response curve, whichever way the signal moves. Low values mean greater potency, high ones weaker potency.

(Values after PubChem BioAssay AID2685 (National Center for Advancing Translational Sciences (NCATS), 2010).)
